Tests used:
SK-MEL-5 = test: NCI DTP cell line screen (SRB), Melanoma; format: cell-based, human
Protocol: (§1) Screening of compounds 70 and 71 against several cancer cell lines The human tumor cell lines of the cancer screening panel are grown in RPMI 1640 medium containing 5% fetal bovine serum and 2 mM L-glutamine. For a typical screening experiment, cells are inoculated into 96 well microtiter plates in 100 μL at plating densities ranging from 5,000 to 40,000 cells/well depending on the doubling time of individual cell lines. After cell inoculation, the microtiter plates are incubated at 37° C., 5% CO2, 95% air and 100% relative humidity for 24 h prior to addition of experimental drugs.
(§2) After 24 h, two plates of each cell line are fixed in situ with TCA, to represent a measurement of the cell population for each cell line at the time of drug addition (Tz). Experimental drugs are solubilized in dimethyl sulfoxide at 400-fold the desired final maximum test concentration and stored frozen prior to use. At the time of drug addition, an aliquot of frozen concentrate is thawed and diluted to twice the desired final maximum test concentration with complete medium containing 50 μg/ml gentamicin. Additional four, 10-fold or ½ log serial dilutions are made to provide a total of five drug concentrations plus control. Aliquots of 100 μl of these different drug dilutions are added to the appropriate microtiter wells already containing 100 μl of medium, resulting in the required final drug concentrations.
(§3) Following drug addition, the plates are incubated for an additional 48 h at 37° C., 5% CO2, 95% air, and 100% relative humidity. For adherent cells, the assay is terminated by the addition of cold TCA. Cells are fixed in situ by the gentle addition of 50 μl of cold 50% (w/v) TCA (final concentration, 10% TCA) and incubated for 60 minutes at 4° C. The supernatant is discarded, and the plates are washed five times with tap water and air dried. Sulforhodamine B (SRB) solution (100 μl) at 0.4% (w/v) in 1% acetic acid is added to each well, and plates are incubated for 10 minutes at room temperature. After staining, unbound dye is removed by washing five times with 1% acetic acid and the plates are air dried. Bound stain is subsequently solubilized with 10 mM trizma base, and the absorbance is read on an automated plate reader at a wavelength of 515 nm. For suspension cells, the methodology is the same except that the assay is terminated by fixing settled cells at the bottom of the wells by gently adding 50 μl of 80% TCA (final concentration, 16% TCA). Using the seven absorbance measurements [time zero, (Tz), control growth, (C), and test growth in the presence of drug at the five concentration levels (Ti)], the percentage growth is calculated at each of the drug concentrations levels. Percentage growth inhibition is calculated as: [(Ti−Tz)/(C−Tz)]×100 for concentrations for which Ti>/=Tz [(Ti−Tz)/Tz]×100 for concentrations for which Ti<Tz
(§4) Three dose response parameters are calculated for each experimental agent. […] The drug concentration resulting in total growth inhibition (TGI) is calculated from Ti=Tz. […] Values are calculated for each of these three parameters if the level of activity is reached; however, if the effect is not reached or is exceeded, the value for that parameter is expressed as greater or less than the maximum or minimum concentration tested.
(§5) The methods described were used to test compounds 70 and 71 on a panel of sixty cell lines under a screening service provided by the Developmental Therapeutics Program at the National Institutes of Health. […]

U251 = test: NCI DTP cell line screen (SRB), CNS Cancer; format: cell-based, human
Protocol: as §1, §2, §3, §4, §5

MOLT-4 = test: NCI DTP cell line screen (SRB), Leukemia; format: cell-based
Protocol: as §1, §2, §3, §4
(§6) The methods described were used to test compounds 70 and 71 on a panel of sixty cell lines under a screening service provided by the Developmental Therapeutics Program at the National Institutes of Health. Shown in FIG. 1C are 1, RPMI-8226 leukemia cells; 2; NCI-H322M non-small cell lung cancer cells; 3, HT29 colon cancer cells; 4, U251 CNS cancer cells; 5, SK-MEL-28 melanoma cancer cells; 6, SK-OV-3 ovarian cancer cells; 7, RXF 393 renal cancer cells; 8, PC-3 prostate cancer cells; 9, MDA-MB-231 breast cancer cells.

K-562 = test: NCI DTP cell line screen (SRB), Leukemia; format: cell-based
Protocol: as §1, §2, §3, §4, §6

SF-268 = test: NCI DTP cell line screen (SRB), CNS Cancer; format: cell-based
Protocol: as §1, §2, §3, §4, §6

SF-295 = test: NCI DTP cell line screen (SRB), CNS Cancer; format: cell-based
Protocol: as §1, §2, §3, §4, §6

NCC(=O)Nc1ccc(-n2nc(C(F)(F)F)cc2-c2ccc3c(ccc4ccccc43)c2)cc1 [Compound 70, 2-Amino-N-{4-[5-(2-phenanthrenyl)-3-(trifluoromethyl)-1H-pyrazol-1-yl]-phenyl}-acetamide]
Mean Optical Densities (SK-MEL-5; Log10 Concentration −4.0): 0.364
Mean Optical Densities (SK-MEL-5; Log10 Concentration −5.0): 0.136
Mean Optical Densities (SK-MEL-5; Log10 Concentration −6.0): 1.659
Mean Optical Densities (SK-MEL-5; Log10 Concentration −7.0): 1.958
Mean Optical Densities (SK-MEL-5; Log10 Concentration −8.0): 1.995
Mean Optical Densities (U251; Log10 Concentration −4.0): 0.320
Mean Optical Densities (U251; Log10 Concentration −5.0): 0.144
Mean Optical Densities (U251; Log10 Concentration −6.0): 0.810
Mean Optical Densities (U251; Log10 Concentration −7.0): 1.139
Mean Optical Densities (U251; Log10 Concentration −8.0): 1.298
Mean Optical Densities (MOLT-4; Log10 Concentration −4.0): 0.296
Mean Optical Densities (MOLT-4; Log10 Concentration −5.0): 0.180
Mean Optical Densities (MOLT-4; Log10 Concentration −6.0): 0.614
Mean Optical Densities (MOLT-4; Log10 Concentration −7.0): 0.951
Mean Optical Densities (MOLT-4; Log10 Concentration −8.0): 0.964
Mean Optical Densities (K-562; Log10 Concentration −4.0): 0.247
Mean Optical Densities (K-562; Log10 Concentration −5.0): 0.209
Mean Optical Densities (K-562; Log10 Concentration −6.0): 0.681
Mean Optical Densities (K-562; Log10 Concentration −7.0): 1.022
Mean Optical Densities (K-562; Log10 Concentration −8.0): 1.435
Mean Optical Densities (SF-268; Log10 Concentration −4.0): 0.280
Mean Optical Densities (SF-268; Log10 Concentration −5.0): 0.252
Mean Optical Densities (SF-268; Log10 Concentration −6.0): 0.789
Mean Optical Densities (SF-268; Log10 Concentration −7.0): 0.930
Mean Optical Densities (SF-268; Log10 Concentration −8.0): 1.016
Mean Optical Densities (SF-295; Log10 Concentration −4.0): 0.287
Mean Optical Densities (SF-295; Log10 Concentration −5.0): 0.225
Mean Optical Densities (SF-295; Log10 Concentration −6.0): 0.915
Mean Optical Densities (SF-295; Log10 Concentration −7.0): 1.190
Mean Optical Densities (SF-295; Log10 Concentration −8.0): 1.173

Source: patent publication US8541460B2, “PDK-1/Akt signaling inhibitors” (The Ohio State University, priority 2003, dated 2013)
